Experimental findings from patent US20050112064A1 (priority 2003, published 2005) are described below.

The subject of this series is T1, P3W (engrailed HTH / consensus EF-hand chimeric peptide) (synthetic construct).
T1 sequence: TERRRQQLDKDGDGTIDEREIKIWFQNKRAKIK
Briefly: binding assay. The note with it: Gd(III) complex; relaxivity r1 at 60 MHz 21.2 to 42.4 mM-1 s-1 and at 20 MHz 16.2 to 29.6 with 1 equiv DNA; 50 mM HEPES pH 7.4, 37 C; reversed by excess NaCl; synthetic protein.

For at least one entry, the source does not settle the construct or the ends of the probe. Where a protein sequence is shown, tags need not be part of it.

For the sequence “GAGCTAATTAGCTC (double strand) [14-mer self-complementary duplex]”, the binding result was “binds”.
